Reference: patent publication US20250179106A1, “Metal Bis(Imino) Aryl Compounds and Methods Thereof” (EXXONMOBIL CHEMICAL PATENTS INC., priority 2022, published 2025)

Experiment: Polymerizations in 2 L autoclave with supported catalyst
Conditions: supported catalyst (MAO/ES70 875 silica), 85° C., ethylene 220 psig, 1-hexene, H2, 60 minutes
Procedure: A 2 L autoclave was heated to 110° C. and purged with N2 for at least 30 minutes. The reactor was then charged with dry NaCl (150 g; Fisher, S271-10) and scavenger (trimethylaluminum on silica, 3 g) and heated for 30 minutes at 85° C. 1-Hexene (2.5 mL) and 10% H2 in N2 (120 SCCM) were added, and stirring was then commenced (450 RPM). Supported catalyst was injected into the reactor with ethylene at a pressure of 220 psig. After the injection, the reactor temperature was controlled at 85° C. and ethylene was allowed to flow into the reactor to maintain constant pressure. Both hydrogen and 1-hexene were fed into the reactor as constant ratios to ethylene flow, 0.5 mg/g and 0.1 g/g, respectively. Hydrogen and ethylene ratios were measured by on-line GC analysis. The polymerization was halted after 60 minutes by venting the reactor. The polymer was washed twice with water to remove the salt, then dried in air for at least two days.

SMILES | Catalyst Productivity (gP/gCat/h)
CCCC[Si](CCCC)(CCCC)CC(=Nc1c(C)cc(Cl)cc1C)c1cccc(C(C[Si](CCCC)(CCCC)CCCC)=Nc2c(C)cc(Cl)cc2C)n1.[Cl][Fe][Cl] [Catalyst 7] | 430
CCCC[Si](CCCC)(CCCC)CC(=Nc1c(C)ccc(Cl)c1C)c1cccc(C(C[Si](CCCC)(CCCC)CCCC)=Nc2c(C)ccc(Cl)c2C)n1.[Cl][Fe][Cl] [Catalyst 8] | 391
CCCC[Si](CCCC)(CCCC)CC(=Nc1c(C)cc(C)cc1Cl)c1cccc(C(C[Si](CCCC)(CCCC)CCCC)=Nc2c(C)cc(C)cc2Cl)n1.[Cl][Fe][Cl] [Catalyst 9] | 988
